Assays:
U2OS cells [1] = experiment: Subcellular localization of NLpep-HaloTag fusions (Example 48); assay type: cell-based; conditions: N-terminal fusions to HaloTag, TMR ligand
U2OS cells [2] = experiment: Subcellular localization of NLpoly WT and 5P by ICC (Example 49); assay type: cell-based

Molecule: NVSGWRLFKKISN [NLpep78]
- intracellular localization of HaloTag fusion (U2OS cells [1]): do not alter the intracellular localization of the HaloTag protein

Molecule: NVTGYRLFKKISN [NLpep79]
- intracellular localization of HaloTag fusion (U2OS cells [1]): do not alter the intracellular localization of the HaloTag protein

B1: 5P: non-luminescent polypeptide variant 5P (protein)
chain: MVFTLEDFVGDWEQTAAYNLDQVLEQGGVSSLFQNLAVSVTPIQRIVLSGENALKIDIHVIIPYEGLSADQMAQIEKIFKVVYPVDDHHFKVILHYGTLVIDGVTPNMINYFGRPYEGIAVFDGKKITVTGTLWNGNKIIDERLITPDGSMLFRVTINP
- intracellular localization of NLpoly (U2OS cells [2]): localize uniformly in cells

Source: patent US9797889B2, “Activation of bioluminescence by structural complementation” (Promega Corporation, priority 2013, dated 2017)
